Experiments:
[1] = Enzymatic hydrolysis of IL/DSIL pretreated sorghum (sugar release); parameters: species or system Sorghum bicolor; settings: sorghum 20 wt %, IL/DSIL 80 wt %, 140° C., 3 h; saccharification 10 mg enzyme per g, 50° C., 72 h
[2] = Lignin removal from sorghum by IL/DSIL pretreatment (acetyl bromide lignin assay); parameters: species or system Sorghum bicolor; settings: sorghum 20 wt %, IL/DSIL 80 wt %, 140° C., 3 h
[3] = Pine pretreatment with IL followed by enzymatic hydrolysis (sugar yields); parameters: species or system Pinus radiata; settings: pine 20 wt %, IL 80 wt %, 140° C., 3 h, saccharification 10 mg protein per g biomass, 50° C., 72 h

Row | SMILES | glucose release from pretreated sorghum after enzymatic hydrolysis [1] [%] | delignification (lignin removal) after pretreatment [2] [%] | glucose yield after enzymatic hydrolysis of pretreated pine [3] [%] | xylose yield after enzymatic hydrolysis of pretreated pine [3] [%] | glucose yield after enzymatic hydrolysis of pretreated pine ([3]; listed as [Chol][Lys]) [%] | xylose yield after enzymatic hydrolysis of pretreated pine ([3]; listed as [Chol][Lys]) [%]
1 | CCCCCCCCCCCCCCCC(=O)[O-].C[N+](C)(C)CCO [[Ch][Pal], cholinium palmitate] | 37.9 | – | – | – | – | –
2 | CC(=O)[O-].C[N+](C)(C)CCO [[Ch][Ace], cholinium acetate] | 85.2 | 45 | – | – | – | –
3 | CCCCCCCC(=O)[O-].C[N+](C)(C)CCO [[Ch][Oct], cholinium octanoate] | 41.1 | – | – | – | – | –
4 | C[N+](C)(C)CCO.NCCCC[C@H](N)C(=O)[O-] [[Ch][Lys], cholinium lysinate] | 98.2 | 77.4 | 51.6 | 46.3 | 49 | 43
